Measured values reported in patent publication US7741431B2, “Liposomes containing novel targeting and/or fusogenic peptides, preparations containing them and therapeutic use thereof” (The United States of America as represented by the …, priority 2005, dated 2010).
Not every detail of the peptide structures is certain; ends, links or a residue may be inferred. Peptide text beside a SMILES is read from it. * marks the point of attachment. X1 = CCCCCCCC/C=C\CCCCCCCC(=O)OC[C@H](COC(=O)CCC(=O)*)OC(=O)CCCCCCC/C=C\CCCCCCCC

Assays:
[1] = Liposome fusion assay (Rhodamine B R18 dequenching)
Source text: Liposomes are picked-up by cells by endocytosis and form an endosome. Within a few minutes the pH in the endosome drops to 5 and degradation begins. In order to accelerate the fusion of the liposome with the endosome membrane and release its DNA content into the cytoplasm, fusogenic peptides (Plank et al., 1994, Puyal et al., 1994), triggered by the low pH, are integrated into the liposomes membrane (0.1-2%). The most suitable fusogenic peptide and its concentration in the liposome are selected, using in-vitro fluorescence method (Hoekstra et al., 1984) at different pH levels.
Rhodamine B (R18) quenching curve: Rhodamine is characterized by self-quenching, which increases linearly with increasing concentration of R18. […] A total fusion of the two types of liposomes would result in a reduction of R18 concentration or quenching by ˜50%. Since liposomes also tend to fuse with their own type, this high level of fusion can never be achieved.
Liposomes containing 8 Mol % of R18 are mixed with liposomes conjugated to the fusion peptide at pH 7.4 and the fluorescence is measured using […] at λ=550 nm and emission at λ=580 nm. The pH is adjusted to 5.0 by adding few drops of 1N HCl and the change in fluorescence is measured. The total fluorescence is then determined by treating the mixture with Triton X-100. Fusion peptides are either free in the media or conjugated to the non-fluorescent liposomes. Due to the high levels of R18 only concentrations of 50 nmol lipid/ml could be tested.

[2] = system: mast cells (RBL-2H3); type: cell-based
[3] = system: lung epithelial cells (A-549); type: cell-based, human

| Structure (SMILES) | activity as a fusogen [1] | fusion to naked liposomes at pH 5.0 ([1]; pH=5.0, fusion peptide conjugated to phospholipid and incorporated into liposomes) | fusion to naked liposomes at pH 7.4 ([1]; pH=7.4, fusion peptide conjugated to phospholipid and incorporated into liposomes) | effect on fusogenic efficiency of conjugating the peptide to phospholipid through a spacer before formulation ([1]; pre-conjugated to phospholipid before formulation) | effect of co-conjugated targeting peptide on fusogenic capacity of the liposomes ([1]; low pH, targeting peptide conjugated to the same liposome as fusion peptide) | binding / targeting to mast cells [2] | binding / targeting to lung epithelial cells [3] |
| --- | --- | --- | --- | --- | --- | --- | --- |
| CCCCCCCC/C=C\CCCCCCCC(=O)OC[C@H](COC(=O)CCC(=O)N[C@@H](CS)C(=O)NCC(=O)N[C@@H](Cc1ccc(O)cc1)C(=O)N[C@@H](Cc1c[nH]c2ccccc12)C(=O)NCC(=O)N[C@@H](CC(=O)O)C(=O)N[C@H](C(=O)N[C@@H](CCSC)C(=O)NCC(=O)N[C@@H](CCC(=O)O)C(=O)N[C@@H](Cc1c[nH]c2ccccc12)C(=O)NCC(=O)N[C@@H](CC(=O)O)C(=O)N[C@@H](CCC(=O)O)C(=O)N[C@H](C(=O)N[C@@H](Cc1ccccc1)C(=O)NCC(=O)N[C@@H](CCC(=O)O)C(=O)N[C@H](C(=O)N[C@@H](C)C(=O)NCC(=O)N[C@@H](Cc1ccccc1)C(=O)N[C@@H](CC(C)C)C(=O)NCC(=O)O)[C@@H](C)CC)[C@@H](C)CC)[C@@H](C)CC)OC(=O)CCCCCCC/C=C\CCCCCCCC [SEQ ID NO: 4] (X1-CGYWGDIMGEWGDEIFGEIAGFLG-OH) | highly active | quite efficient | practically no fusion | improved | – | – | – |
| CCCCCCCC/C=C\CCCCCCCC(=O)OC[C@H](COC(=O)CCC(=O)N[C@@H](CS)C(=O)N[C@@H](Cc1c[nH]cn1)C(=O)N[C@@H](CC(C)C)C(=O)N[C@@H](CC(=O)O)C(=O)N[C@H](C(=O)N[C@H](C(=O)N[C@@H](Cc1c[nH]c2ccccc12)C(=O)O)[C@@H](C)CC)[C@@H](C)CC)OC(=O)CCCCCCC/C=C\CCCCCCCC [SEQ ID NO: 3] (X1-CHLDIIW-OH) | – | – | – | – | did not interfere | efficient targeting peptide | efficient targeting peptide |
